Source: patent US20180320217A1, “METHODS FOR SAMPLING AND MEASURING ORAL LAVAGE PROTEINS” (The Procter & Gamble Company, priority 2017, published 2018)

System: peptides in gingival brush samples
Assay: Protein and peptide profiling of gingival brush samples (LC-MS/MS), TABLE 23
Assay type: in vivo, human
Details: for Mean Cntl Bsl / Mean Cntl Wk3 / Mean TrtBsl / Mean TrtWk3: peptide abundance, gingival brush samples; for Mean Cntl Bsl / Mean Cntl Wk3 / Mean CntlBsl (peptide abundance) / Mean CntlWk3 (peptide abundance): control regimen; for Mean Cntl Bsl / Mean TrtBsl / Mean CntlBsl (peptide abundance) / Mean TrtBsl (peptide abundance): baseline; for Mean Cntl Wk3 / Mean TrtWk3 / Mean CntlWk3 (peptide abundance) / Mean TrtWk3 (peptide abundance): week 3; for Mean TrtBsl / Mean TrtWk3 / Mean TrtBsl (peptide abundance) / Mean TrtWk3 (peptide abundance): treatment regimen; for Mean CntlBsl (peptide abundance) / Mean CntlWk3 (peptide abundance) / Mean TrtBsl (peptide abundance) / Mean TrtWk3 (peptide abundance): pooled gingival brush samples, LC-MS/MS

Substance | Mean Cntl Bsl | Mean Cntl Wk3 | Mean TrtBsl | Mean TrtWk3 | Mean CntlBsl (peptide abundance) | Mean CntlWk3 (peptide abundance) | Mean TrtBsl (peptide abundance) | Mean TrtWk3 (peptide abundance)
FILA_HUMAN | 1241.5 | 1838.4 | 2441.8 | 903.3 |  |  |  | 
GRP78_HUMAN | 7182.7 | 12846.8 | 9192.3 | 15225.7 |  |  |  | 
ODO2_HUMAN | 30536.6 | 37348.6 | 20853.2 | 45660.4 |  |  |  | 
GLNA_HUMAN | 13608.7 | 20891.9 | 13589.1 | 26133.8 |  |  |  | 
ATPB_HUMAN | 3158.5 | 3701.7 | 1275.7 | 3129.0 |  |  |  | 
UB2V1_HUMAN |  |  |  |  | 3307.2 | 5580.5 | 2880.5 | 6110.0
1433Z_HUMAN | 190255.8 | 292907.6 | 186750.4 | 326090.7 |  |  |  | 
IDHC_HUMAN | 17771.7 | 13240.3 | 15482.9 | 17631.4 |  |  |  | 
1433B_HUMAN | 6129.8 | 9357.7 | 6474.2 | 10149.8 |  |  |  | 
KPYM_HUMAN |  |  |  |  | 12918.4 | 19760.9 | 16658.2 | 23529.4
PABP1_HUMAN | 42504.8 | 63429.8 | 56370.3 | 84565.0 |  |  |  | 
RECQ5_HUMAN | 3312.2 | 5483.6 | 3823.0 | 5623.5 |  |  |  | 
